Source: patent publication US20230285527A1
Results are given in words; binding and its absence hold for the method and conditions named. Some binding calls cover weakened binding; strength is not graded here.

Amino acid sequences for entries named in this document (tags omitted). Residues count along the entry.
UniProt O00481, residues 30-513: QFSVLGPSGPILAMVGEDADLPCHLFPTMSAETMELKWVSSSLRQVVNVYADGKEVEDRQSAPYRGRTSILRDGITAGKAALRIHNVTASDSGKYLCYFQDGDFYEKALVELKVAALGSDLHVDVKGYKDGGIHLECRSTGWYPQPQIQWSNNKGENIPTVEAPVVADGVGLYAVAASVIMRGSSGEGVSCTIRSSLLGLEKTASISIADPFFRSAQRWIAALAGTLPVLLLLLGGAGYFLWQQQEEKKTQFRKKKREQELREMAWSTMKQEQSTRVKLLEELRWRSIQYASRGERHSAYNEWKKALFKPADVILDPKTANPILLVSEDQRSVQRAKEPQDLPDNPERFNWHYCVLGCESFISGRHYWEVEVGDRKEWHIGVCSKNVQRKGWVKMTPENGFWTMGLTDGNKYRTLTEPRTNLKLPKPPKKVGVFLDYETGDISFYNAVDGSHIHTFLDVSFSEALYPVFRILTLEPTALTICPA
UniProt P78410, residues 30-334: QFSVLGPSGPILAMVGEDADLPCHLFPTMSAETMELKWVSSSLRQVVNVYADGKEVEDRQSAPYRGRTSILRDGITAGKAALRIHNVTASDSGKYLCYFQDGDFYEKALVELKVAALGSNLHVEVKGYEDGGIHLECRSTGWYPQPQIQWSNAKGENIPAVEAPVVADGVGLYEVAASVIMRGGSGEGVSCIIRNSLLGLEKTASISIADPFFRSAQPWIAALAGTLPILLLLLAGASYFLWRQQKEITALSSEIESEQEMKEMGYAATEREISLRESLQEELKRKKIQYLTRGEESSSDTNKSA

Key:
[1] = target: CD277 (BT3 / BTN3A, butyrophilin 3), human, on cells (human) (UniProt O00481); assay: immunohistochemistry on frozen sections of reactive lymph nodes
[2] = target: CD277 (BT3 / BTN3A, butyrophilin 3), human, on cells (human) (UniProt O00481); assay: flow cytometry on primary AML blasts
[3] = target: BTN3A2 (BT3.2), human (human) (UniProt P78410); assay: western blot of total protein extracts with anti-BTN3A 20.1
[4] = target: CD277 (BT3 / BTN3A, butyrophilin 3), human, on cells (human) (UniProt O00481); assay: flow cytometry on human NK cells
[5] = target: CD277 (BT3 / BTN3A, butyrophilin 3), human, on cells (human) (UniProt O00481); assay: flow cytometry on human monocytes and iDC
[6] = target: CD277 (BT3 / BTN3A, butyrophilin 3), human, on cells (human) (UniProt O00481); assay: flow cytometry on human PBMC, Alexa647 anti-CD277 clone 20.1

Measured: binding

B1: mAb 20.1 (murine anti-CD277 antibody, hybridoma CNCM I-4402) (antibody, V domains shown)
VH: QVQLQQSGAELVKPGASVKLSCKASGYTFTRYYLYWVKQRPGQGLEWIGEINPNNGGTKFNEKFKSKATLTVDKSSRTTYIQLSSLTSEDSAVYYCSREDDYDGTPDAMDYWGQGTAVTVSS
VL: DIQMNQSPSSLSASLGDTITITCHASQNINLWLSWYQQRPGNIPKLLIYRASNLHTGVPSRFSGSGSATGFTLTISSLQPEDIATYYCQQGHSYPYTFGGGTKLDIK
binds: [1] | [2] | [3] | [4] | [5] | [6]
